According to patent US6551997B1, “Engineered polypeptides in personal care applications” (Biosil Research Institute INC, priority 2002, dated 2003):
No end group written: not given here.

assay: Comb properties evaluation of conditioner formulations on hair tresses (visual and tactile observations); parameters: key: 1: Very poor; 2: Poor; 3: Satisfactory; 4: Good; 5: Excellent; conditions: 1.0% polypeptide added to Base Formula, test scale 1-5

| Sequence | Product Spreadbility | Residual Feel | Shine | Smoothness of Product | Squeaky Feel | Wet Combing |
| --- | --- | --- | --- | --- | --- | --- |
| ALRSCLAKPSALRSCLAKCALRSCLAKCPSALRSSRLPAK (cysteine pairing not given here) [polypeptide 6] | 4 | 4 | 3 | 4 | 3 | 4 |
| ALRSCLAKPSALRSCLPAKCALRSCLAKCPSALRSCLPAK (cysteine pairing not given here) [polypeptide 5] | 4 | 4 | 4 | 4 | 3 | 5 |
| ALRSCLAKPSALRSCLPAKS (cysteine pairing not given here) [polypeptide 2] | 4 | 4 | 2 | 4 | 2 | 5 |
| ALRSCLAKPSALRSCLPAKSALRSCLAKPSALRSCLKAKSALRSCLAKPSALRSCLKAKS (cysteine pairing not given here) [polypeptide 4] | 4 | 3 | 3 | 4 | 4 | 4 |
| ALRSCLAKPSALRSCLPAKSALRSCLAKPSALRSCLPAKS (cysteine pairing not given here) [polypeptide 3] | 4 | 4 | 3 | 4 | 3 | 4 |
| ALRSCLAKPSALRSCLSAKSALRSCLAKPSALRSCLSAKS (cysteine pairing not given here) [polypeptide 7] | 4 | 3 | 3 | 3 | 3 | 4 |
| ALRSCLPAKSALRSCLPAKS (cysteine pairing not given here) [polypeptide 1] | 5 | 4 | 3 | 5 | 3 | 5 |
| ALRSSLACKSALRSKLAAKSALRSSLAKASALRSSLAAKP [polypeptide 10, reference compound] | 2 | 2 | 2 | 3 | 2 | 3 |
| ALRSSLAKKSALRSKLAAKS [polypeptide 9, reference compound] | 2 | 2 | 1 | 3 | 1 | 2 |
| APRSCLAKPSALRSCLSACS (cysteine pairing not given here) [polypeptide 8] | 4 | 4 | 2 | 4 | 3 | 5 |
